{"source": "patent US11738087B2", "about": "“Lymph directing prodrugs” (Monash University, priority 2015, dated 2023)", "test": "Pharmacokinetic (PK) studies in rats after oral gavage (plasma free parent drug)", "settings": "plasma testosterone exposure, SD female rats", "note": "Some results were stated once for a whole list of compounds, not compound by compound.", "data": [{"substance": "1-(1,3-Bis(palmitoyloxy)propan-2-yl) 4-((((8R,9S,10R,13S,14S,17S)-10,13-dimethyl-3-oxo-2,3,6,7,8,9,10,11,12,13,14,15,16,17-tetradecahydro-1H-cyclopenta[a]phen-anthren-17-yl)oxy)methyl) 2/3-methylsuccinate [Compounds 13/14]", "values": [{"measurement": "AUC0-24 h fold increase compared with TU group", "value": "95-97"}]}]}
